{"source": "patent US20100273732A1", "about": "“COMBINATION METHODS OF TREATING CANCER” (priority 2003, published 2010)", "key": {"LnCap (prostate) cells": {"tested_on": "LnCap (prostate) cells", "test": "alamarBlue proliferation inhibition, drug combination experiments, LnCap", "assay_type": "cell-based", "conditions": "Homo sapiens, 96 h, agent alone, 4 days, read-out: 50% inhibition Effective Dose", "method": "(§1) Drug combination experiments were performed on five human cancer cell lines: T24 (bladder carcinoma), LnCap (prostate), MCF7 (breast), DLCL (non-Hodgkin's lymphoma) and LCC18 (colon carcinoid). Each cell line was cultured and incubated at 37° C. in its required medium: MEM a (10% FCS), RPMI 1640 (10% FCS), DME HG (10% FCS), enhanced RPMI (10% FCS), and Hites medium (5% FCS), respectively.\n(§2) Adherent cell lines (T24, LnCap, MCF7 and LCC18) were plated on 96 well plates 24 hours before treatment with SAHA and anticancer agents, to allow time for the cells to attach to the well bottoms. DLCL, a suspension cell line, was plated on 96 well plates on the same day of the experiment. […]\n(§3) After treatment, cells were incubated at 37° C. for 4 days. […] The reduction was measured by fluorescence using a SpectaMax GeminiXS® spectrofluorometric microtiter well plate reader (Molecular Devices Corporation, Sunnyvale, Calif.). Data was expressed as fluorescence emission intensity units as a function of time of incubation and analyzed using SOFTmax PRO® v. […]\n(§4) a) 50% effective dose/4; b) 50% effective dose/2; c) 50% effective dose; d) 50% effective dose*2; and e) 50% effective dose*4. The dose that inhibits 50% of proliferation for each drug was determined in preliminary experiments in which cells were treated with a wide range of concentrations of SAHA alone and Irinotecan, 5-FU and Docetaxel alone. […]"}, "[1]": {"tested_on": "T24 (bladder carcinoma) cells", "test": "alamarBlue proliferation inhibition, drug combination experiments, T24", "assay_type": "cell-based", "conditions": "Homo sapiens, 96 h, agent alone, 4 days, read-out: 50% inhibition Effective Dose", "method": "as §1, §2, §3, §4"}}}
{"smiles": "O=C(CCCCCCC(=O)Nc1ccccc1)NO", "note": "[SAHA, suberoylanilide hydroxamic acid]", "values": [{"measurement": "IC50", "setting": "LnCap (prostate) cells", "result": 1.7, "unit": "µM"}, {"measurement": "IC50", "setting": "[1]", "result": 5, "unit": "µM"}]}
